In patent publication US20220227870A1:
Results are given in words; binding and its absence hold for the method and conditions named. Some results given as binding are weak or reduced against the parent protein; the word gives no strength.

Protein sequences, listed by entry. Tags and fused reporters are not part of them. Residues count along the entry.
UniProt Q08722, residues 19-323: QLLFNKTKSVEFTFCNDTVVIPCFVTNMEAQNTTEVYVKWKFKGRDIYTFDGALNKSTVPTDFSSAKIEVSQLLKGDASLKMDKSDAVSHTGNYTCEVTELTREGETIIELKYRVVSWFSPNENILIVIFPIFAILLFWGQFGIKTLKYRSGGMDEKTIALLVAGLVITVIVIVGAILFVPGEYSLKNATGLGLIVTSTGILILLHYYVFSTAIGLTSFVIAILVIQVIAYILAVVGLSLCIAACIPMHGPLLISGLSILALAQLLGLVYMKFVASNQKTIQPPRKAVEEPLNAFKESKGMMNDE

Key:
[1] = target: human CD47 expressed on the surface of cells (CHO-S-CD47 cells) (human) (UniProt Q08722); test: FACS on CHO-S-CD47 cells; ADI 29341 as positive control
[2] = target: human CD47 expressed on the surface of cells (CHO-S-CD47 cells) (human) (UniProt Q08722); test: FACS on CHO-S cells overexpressing human CD47, PE-conjugated anti-human Fc detection, MFI

B1: anti-CD47 antibody ADI-29341 (antibody, V domains shown)
VH: QVQLQESGPGLVKPSETLSLTCTVSGGSIEHYYWSWIRQPPGKGLEWIGYIYYSGSTNYNPSLKSRVTISVDTSKNQFSLKLSSVTAADTAVYYCARGKTGSAAWGQGTLVTVSS
VL: DIQMTQSPSSVSASVGDRVTITCRASQGISRWLAWYQQKPGKAPKLLIYAASSLQSGVPSRFSGSGSGTDFTLTISSLQPEDFATYYCQQTVSFPITFGGGTKVEIK
Q: Which results are given for B1?
A: binding [1]: binds; binding [2]: binds
